According to the supplement of paper PMC12889115:
Some of the results follow. Values are raw readings; no control value is given beside them.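 First-pass screen: polymyxin B was added at a level that permeabilizes the Salmonella outer membrane while sparing the inner membrane. DMSO wells, with and without polymyxin B, defined maximum growth. Because plates differed from one another, each plate's data were ranked separately and the compounds with the lowest OD600 were carried forward as hits.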

System: Salmonella enterica serovar Typhimurium SL1344
Experiment: bacterial growth OD600 after 18 h with compound and polymyxin B; higher = more bacterial growth (less inhibition)
Conditions: 50 µM, Mueller-Hinton broth

Q: `COc1cccc(CC(=O)N2CCC3(CC2)c2ccccc2[C@@H](NC(=O)c2ccncc2)[C@@H]3OC)c1` was tested. Which “bacterial growth OD600” value (polymyxin B 0.75 µg/mL) did it give?
A: 1.02

Q: For `CCc1ocnc1C(=O)NC1CC(=O)N(Cc2ccccc2C(F)(F)F)C1` (stereo unspecified), which “bacterial growth OD600” value (polymyxin B 1 µg/mL) is on record?
A: 1.08

Q: How did the “bacterial growth OD600” value (polymyxin B 0.75 µg/mL) turn out when `Cn1ccnc1CN1CCCC1C(=O)Nc1cccc(-n2cccn2)c1` (stereo unspecified) was run?
A: 0.762

Q: `CCCn1ncc(C(=O)NCc2cccnc2Oc2ccccc2C)c1C` was tested. Which “bacterial growth OD600” value (polymyxin B 0.75 µg/mL) did it give?
A: 0.914

Q: How did the “bacterial growth OD600” value (polymyxin B 0.75 µg/mL) turn out when `CCC1CN(CCNC(=O)C2CC(=O)N(CCOC)C2)Cc2cc(OC)ccc2O1` (stereo unspecified) was run?
A: 0.865

Q: With `O=C(CC1CCCCC1)Nc1nc2c(s1)C(=O)CC(C(=O)N1CCN(C(=O)c3ccco3)CC1)C2` (stereo unspecified) as the compound, how does the “bacterial growth OD600” value (polymyxin B 0.75 µg/mL) read?
A: 0.744

Q: `Cc1ccc(CN2CCC(C(=O)Nc3ccc(Oc4cccnc4)cc3)CC2)cc1` was tested. Which “bacterial growth OD600” value (polymyxin B 1 µg/mL) did it give?
A: 0.726

Q: `O=C1CCCN1CC1CCN(C(=O)c2ccc(NC3CCC3)nc2)CC1` was tested. Which “bacterial growth OD600” value (polymyxin B 0.75 µg/mL) did it give?
A: 0.746

Q: Which “bacterial growth OD600” value (polymyxin B 0.75 µg/mL) does the source give for `COc1ccccc1CNC(=O)c1c(OC)cc(=O)n2c1CCN(Cc1ccc3ccccc3c1)CC2` here?
A: 0.772

Q: How did the “bacterial growth OD600” value (polymyxin B 0.75 µg/mL) turn out when `COc1cc2nc(N(C)C)c(CNCCc3ccccc3Cl)cc2c(OC)c1OC` was run?
A: 0.711

Q: `CCOC(=O)C1(CCc2ccccc2)CCN(C(=O)C(C)n2ccnc2C(C)C)CC1` (stereo unspecified) was tested. Which “bacterial growth OD600” value (polymyxin B 0.75 µg/mL) did it give?
A: 0.798

Q: `CCOC(=O)C1(Cc2ccc(F)cc2)CCCN(C(=O)c2cc(C(C)C)no2)C1` (stereo unspecified) was tested. Which “bacterial growth OD600” value (polymyxin B 1 µg/mL) did it give?
A: 0.011

Q: Which “bacterial growth OD600” value (polymyxin B 1 µg/mL) does the source give for `CC(C)(C)NC(=O)C1CCCN(C2CCN(Cc3ccncc3)CC2)C1` (stereo unspecified) here?
A: 0.952

Q: For `O=C(NCC1CCCO1)c1cc(Cl)ccc1OC1CCN(C2CCCC2)CC1` (stereo unspecified), which “bacterial growth OD600” value (polymyxin B 0.75 µg/mL) is on record?
A: 0.767

Q: For `O=C(c1cc(COc2ccc3c(c2)OCO3)[nH]n1)N1CCC[C@H]1CO`, which “bacterial growth OD600” value (polymyxin B 1 µg/mL) is on record?
A: 0.889

Q: `COc1ccc(CCN2CC(NC(=O)Cc3cccc(C)c3)CC2=O)cc1` (stereo unspecified) was tested. Which “bacterial growth OD600” value (polymyxin B 1 µg/mL) did it give?
A: 0.495

Q: `O=C(NC1CC(=O)N(Cc2cccc(F)c2)C1)c1cccnc1` (stereo unspecified) was tested. Which “bacterial growth OD600” value (polymyxin B 1 µg/mL) did it give?
A: 1.09

Q: Which “bacterial growth OD600” value (polymyxin B 1 µg/mL) does the source give for `Cc1ccccc1CCN1CCCC(CN(C)C(=O)Nc2ccccc2)C1` (stereo unspecified) here?
A: 1.1

Q: How did the “bacterial growth OD600” value (polymyxin B 1 µg/mL) turn out when `O=C(CC1=CCCCC1)N1CCCC(Nc2ccc3c(c2)OCCO3)C1` (stereo unspecified) was run?
A: 0.45

Q: Which “bacterial growth OD600” value (polymyxin B 1 µg/mL) does the source give for `O=C(CC(c1ccccc1)c1ccc(Cl)cc1)N1CCOCC1` (stereo unspecified) here?
A: 0.708

Q: How did the “bacterial growth OD600” value (polymyxin B 1 µg/mL) turn out when `O=C(Nc1ccc(Oc2ccccc2F)cc1)C1CCN(Cc2nccs2)CC1` was run?
A: 0.919

Q: How did the “bacterial growth OD600” value (polymyxin B 0.75 µg/mL) turn out when `COc1cc(=O)n2c(c1C(=O)NC(C)c1ccco1)CCN(Cc1cc3ccccc3s1)CC2` (stereo unspecified) was run?
A: 0.775

Q: How did the “bacterial growth OD600” value (polymyxin B 1 µg/mL) turn out when `COc1ccc(C(=O)NC2CC2)cc1OC1CCN(Cc2ccc(NC(C)=O)cc2)CC1` was run?
A: 1.06

Q: `Cc1ccccc1Oc1ncccc1CNC(=O)C1CCCN(C(N)=O)C1` (stereo unspecified) was tested. Which “bacterial growth OD600” value (polymyxin B 0.75 µg/mL) did it give?
A: 0.98

Q: How did the “bacterial growth OD600” value (polymyxin B 1 µg/mL) turn out when `CC(=O)c1ccc(S(=O)(=O)N2CCC(CO)(Cc3cccc(C(F)(F)F)c3)CC2)cc1` was run?
A: 0.807

Q: With `COc1ccc(OCc2cc(C(=O)NC(CO)C(C)C)no2)c2ccccc12` (stereo unspecified) as the compound, how does the “bacterial growth OD600” value (polymyxin B 1 µg/mL) read?
A: 0.004

Q: For `COc1ccc(NC2CCCN(C(=O)Cc3sc(C)nc3C)C2)cc1OC` (stereo unspecified), which “bacterial growth OD600” value (polymyxin B 1 µg/mL) is on record?
A: 0.927

Q: Which “bacterial growth OD600” value (polymyxin B 1 µg/mL) does the source give for `CCOC(=O)CNC(=O)N(C)CC1CCCN(CCc2ccccc2C)C1` (stereo unspecified) here?
A: 1.06

Q: For `CC1(C)CC2CC(C)(CN2C(=O)CCC2(Cc3ccc4ccccc4c3)CCC(=O)N2)C1` (stereo unspecified), which “bacterial growth OD600” value (polymyxin B 0.75 µg/mL) is on record?
A: 0.081

Q: How did the “bacterial growth OD600” value (polymyxin B 1 µg/mL) turn out when `O=C(NCc1ccccc1Cl)c1cc(CN2CCOCC2)on1` was run?
A: 1.06

Q: For `COc1ccccc1Oc1ncccc1CNC(=O)C1CCCCO1` (stereo unspecified), which “bacterial growth OD600” value (polymyxin B 0.75 µg/mL) is on record?
A: 0.859
